Assay results from patent US10351500B2, “Method of using of dihydro-resveratrol or its stilbenoid derivatives and/or chemical variants as antimicrobial agents” (Hong Kong Baptist University, priority 2015, dated 2019).
Some of these results come from one statement about several compounds together.

Legend:
[1] = biological target: T1, cellular tyrosinase in B16 melanocytes (Mus musculus, UniProt P11344); experiment: cellular tyrosinase activity in B16 melanocytes; assay type: cell-based; conditions: B16, α-MSH 100 nM, 24 hours treatment
T1 construct: The relative activity of cellular tyrosinase in melanocytes is calculated; endogenous in cells; host or cells: B16 melanocytes (Shanghai Institutes for Biological Science, Chinese Academy of Sciences), stimulated with alpha-MSH
T1 sequence (P11344 19-533): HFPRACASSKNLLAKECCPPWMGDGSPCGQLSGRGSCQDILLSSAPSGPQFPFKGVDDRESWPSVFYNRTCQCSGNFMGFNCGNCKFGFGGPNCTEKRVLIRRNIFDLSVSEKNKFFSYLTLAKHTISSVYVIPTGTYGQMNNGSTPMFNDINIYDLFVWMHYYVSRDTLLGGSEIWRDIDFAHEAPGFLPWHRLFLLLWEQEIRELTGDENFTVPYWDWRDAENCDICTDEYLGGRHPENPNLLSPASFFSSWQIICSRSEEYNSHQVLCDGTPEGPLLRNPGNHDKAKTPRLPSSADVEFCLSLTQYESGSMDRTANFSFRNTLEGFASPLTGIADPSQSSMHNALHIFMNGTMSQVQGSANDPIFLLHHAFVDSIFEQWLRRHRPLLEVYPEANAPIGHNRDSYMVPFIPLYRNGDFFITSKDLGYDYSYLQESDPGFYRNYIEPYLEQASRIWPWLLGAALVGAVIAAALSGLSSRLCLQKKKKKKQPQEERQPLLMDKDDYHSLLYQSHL

[2] = system: A375 melanocytes; experiment: cellular melanin content in A375 melanocytes; assay type: cell-based, human; conditions: A375, α-MSH 100 nM, 24 hours treatment
[3] = system: B16 melanocytes; experiment: cellular melanin content in B16 melanocytes; assay type: cell-based; conditions: B16, α-MSH 100 nM, 24 hours treatment
[4] = biological target: T2, cellular tyrosinase in A375 melanocytes (Homo sapiens, UniProt P14679); experiment: cellular tyrosinase activity in A375 melanocytes; assay type: cell-based; conditions: A375, α-MSH 100 nM, 24 hours treatment
T2 construct: The relative activity of cellular tyrosinase in melanocytes is calculated; endogenous in cells; host or cells: A375 cells (American Type Culture Collection), stimulated with alpha-MSH
T2 sequence (P14679 19-529): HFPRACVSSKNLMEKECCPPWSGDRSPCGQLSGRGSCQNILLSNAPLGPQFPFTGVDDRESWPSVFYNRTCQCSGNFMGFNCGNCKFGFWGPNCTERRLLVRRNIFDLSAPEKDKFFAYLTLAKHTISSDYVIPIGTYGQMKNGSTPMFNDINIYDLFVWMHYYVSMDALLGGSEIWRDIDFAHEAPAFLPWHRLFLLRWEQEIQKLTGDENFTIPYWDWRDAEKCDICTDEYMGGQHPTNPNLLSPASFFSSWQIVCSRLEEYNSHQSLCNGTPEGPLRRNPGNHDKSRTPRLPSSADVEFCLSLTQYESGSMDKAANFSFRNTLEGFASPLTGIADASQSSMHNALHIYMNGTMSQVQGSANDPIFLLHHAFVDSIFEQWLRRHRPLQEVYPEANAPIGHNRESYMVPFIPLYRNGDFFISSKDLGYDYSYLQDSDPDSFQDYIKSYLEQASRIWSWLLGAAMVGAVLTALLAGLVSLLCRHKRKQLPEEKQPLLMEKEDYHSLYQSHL

Compound | tyrosinase activity [1] | cellular melanin content [2] | cellular melanin content [3] | tyrosinase activity [4]
CCOC(=O)COc1ccc(CCc2cc(OCC(=O)OCC)cc(OCC(=O)OCC)c2)cc1 [DR1] | inhibited | reduced | reduced | inhibited
CCCOc1ccc(CCc2cc(OCCC)cc(OCCC)c2)cc1 [DR2] | inhibited | reduced | reduced | inhibited
C=CCOc1ccc(CCc2cc(OCC=C)cc(OCC=C)c2)cc1 [DR3] | inhibited | reduced | reduced | inhibited
CCCC(=O)Oc1ccc(CCc2cc(OC(=O)CCC)cc(OC(=O)CCC)c2)cc1 [DR4] | inhibited | reduced | reduced | inhibited
O=C(Oc1ccc(CCc2cc(OC(=O)c3ccc(Cl)cc3)cc(OC(=O)c3ccc(Cl)cc3)c2)cc1)c1ccc(Cl)cc1 [DR5] | inhibited | reduced | reduced | inhibited
COc1ccc(C(=O)Oc2ccc(CCc3cc(OC(=O)c4ccc(OC)cc4)cc(OC(=O)c4ccc(OC)cc4)c3)cc2)cc1 [DR6] | inhibited | reduced | reduced | inhibited
O=C(Oc1ccc(CCc2cc(OC(=O)c3ccccc3)cc(OC(=O)c3ccccc3)c2)cc1)c1ccccc1 [DR7] | inhibited | reduced | reduced | inhibited
C=CC(=O)Oc1ccc(CCc2cc(OC(=O)C=C)cc(OC(=O)C=C)c2)cc1 [DR8] | inhibited | reduced | reduced | inhibited
O=C(Oc1ccc(CCc2cc(OC(=O)C3CCCC3)cc(OC(=O)C3CCCC3)c2)cc1)C1CCCC1 [DR9] | inhibited | reduced | reduced | inhibited
CC(C)(C)C(=O)Oc1ccc(CCc2cc(OC(=O)C(C)(C)C)cc(OC(=O)C(C)(C)C)c2)cc1 [DR11] | inhibited | reduced | reduced | inhibited
Oc1ccc(/C=C/c2cc(O)cc(O)c2)cc1 [Trans-resveratrol, trans-resveratrol, reference compound] | – | reduced | reduced | –
